Data source: PubChem BioAssay AID720505 (Drosophila RNAi Screening Center, 2013)
Purpose: 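Knock-downs that reduce calcium influx once internal stores are emptied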 (primary screen). Cells: Drosophila S2R+ cells. Knock-down reagent: long dsRNA against Drosophila genes. Treatment: thapsigargin (2 µM) in calcium-free buffer to empty internal stores, then 2 mM calcium added back. Measurement: 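Stores emptied by 2 µM thapsigargin without calcium, then 2 mM calcium re-added; fluo-4 fluorescence followed by FLIPR in 384-well plates, per-well averaged endpoint, raw; two screen passes, some wells retested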. Scale: calcium signal and retest calcium signal: higher = more calcium entry after store depletion. Hit rule: 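About 1500 genes called as lowering calcium entry, by varying amounts, judged against per-plate control wells with STIM1 as positive and Rho1 as negative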. Meaning of the calls: active = called as lowering calcium entry; inactive = not called.
The screen tested about 20,000 reagents; shown is an unselected part of those that have a named target and a result. Of all reagents, about 2,100 (10%) got an active call. 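Raw plate signals without normalisation; calls rest on control-based scores that were not deposited; replicate 2 separates called from uncalled poorly.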 Reagents against one gene are numbered here. Names joined by + are all predicted targets of the reagent. Reagent sequences are not shown. Not given: the amount of reagent, the time to read-out.

CG17826 — calcium signal, replicate 1: 112; calcium signal, replicate 2: 76.8; activity call: inactive
CG11898 — calcium signal, replicate 1: 99.5; calcium signal, replicate 2: 94.7; retest calcium signal, replicate 1: 68.3; retest calcium signal, replicate 2: 103; activity call: inactive
Cox17 — calcium signal, replicate 1: 76.7; calcium signal, replicate 2: 100; activity call: inactive
Task7 — calcium signal, replicate 1: 147; calcium signal, replicate 2: 95.5; activity call: inactive
Der-2 — calcium signal, replicate 1: 100; calcium signal, replicate 2: 194; activity call: inactive
Sgsh — calcium signal, replicate 1: 125; calcium signal, replicate 2: 76.8; activity call: inactive
Pkn + Tsen15 — calcium signal, replicate 1: 102; calcium signal, replicate 2: 161; activity call: inactive
CG13058 — calcium signal, replicate 1: 90.3; calcium signal, replicate 2: 172; activity call: inactive
CG7606 — calcium signal, replicate 1: 116; calcium signal, replicate 2: 114; activity call: inactive
Sec16 #1 — calcium signal, replicate 1: 72; calcium signal, replicate 2: 92; activity call: inactive
Sec16 #2 — calcium signal, replicate 1: 99; calcium signal, replicate 2: 98.1; activity call: inactive
Gld — calcium signal, replicate 1: 115; calcium signal, replicate 2: 123; activity call: inactive
CG10669 — calcium signal, replicate 1: 274; calcium signal, replicate 2: 116; activity call: inactive
CG2767 — calcium signal, replicate 1: 97.2; calcium signal, replicate 2: 144; activity call: inactive
FAM21 — calcium signal, replicate 1: 66.4; calcium signal, replicate 2: 124; activity call: active
Rab14 — calcium signal, replicate 1: 86.8; calcium signal, replicate 2: 94.6; activity call: inactive
SREBP — calcium signal, replicate 1: 111; calcium signal, replicate 2: 134; activity call: inactive
HmgD — calcium signal, replicate 1: 61.7; calcium signal, replicate 2: 131; activity call: active
CG3184 — calcium signal, replicate 1: 173; calcium signal, replicate 2: 125; activity call: inactive
